Measured values from PMC3114845, “Bordetella pertussis Autotransporter Vag8 Binds Human C1 Esterase Inhibitor and Confers Serum Resistance” (PLoS ONE, 2011).
Results are given in words; binding and its absence hold for the method and conditions named. Some results given as binding are weak or reduced against the parent protein; the word gives no strength. For part of these data: Tags and fused reporters may be left off the sequences shown.

Key:
[1] = molecular target: T1, histidine-tagged Vag8 passenger domain (residues Val40 to Leu610) (Bordetella pertussis) (UniProt Q79GN7); assay: far-Western, overlay or dot blot; data not shown; purified Vag8 or BrkA passenger domains on SDS-PAGE, blotted, renatured, overlaid with 1% normal human serum in Veronal buffer; detected with anti-C1inh; only the target purified
T1 sequence: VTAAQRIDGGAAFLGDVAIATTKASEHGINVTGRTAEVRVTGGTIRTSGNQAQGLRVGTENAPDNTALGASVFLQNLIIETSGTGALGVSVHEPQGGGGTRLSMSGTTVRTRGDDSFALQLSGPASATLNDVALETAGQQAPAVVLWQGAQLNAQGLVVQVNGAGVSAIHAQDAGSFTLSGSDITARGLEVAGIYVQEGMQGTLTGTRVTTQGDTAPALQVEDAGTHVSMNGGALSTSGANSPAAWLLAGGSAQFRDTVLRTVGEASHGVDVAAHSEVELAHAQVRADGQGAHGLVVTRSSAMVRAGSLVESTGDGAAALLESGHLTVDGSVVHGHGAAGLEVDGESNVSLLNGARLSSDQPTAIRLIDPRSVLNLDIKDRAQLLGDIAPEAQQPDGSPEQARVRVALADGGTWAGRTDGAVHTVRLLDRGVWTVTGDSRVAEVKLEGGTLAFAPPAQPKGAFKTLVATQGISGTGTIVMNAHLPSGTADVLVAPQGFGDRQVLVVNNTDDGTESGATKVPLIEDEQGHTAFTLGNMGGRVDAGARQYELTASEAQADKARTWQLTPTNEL

[2] = molecular target: T1, histidine-tagged Vag8 passenger domain (residues Val40 to Leu610) (Bordetella pertussis); assay: ELISA; MaxiSorp plates coated with two-fold dilutions of purified passenger domain (top 5 µg/ml); probed 1 h at room temperature with 2% normal human serum in 1x Veronal buffer; detected with goat anti-C1inh; only the target purified
[3] = molecular target: T2, BrkA expressed from plasmid pBrkA in BP338Vag8^- (Bordetella pertussis) (UniProt Q45340); assay: surface-binding assay (bacteria in serum, immunoblot of cell-associated C1inh); viable bacteria exposed to normal human serum 15 min at 37°C, on ice 5 min, washed 3 times, pelleted; cell-associated C1inh detected by immunoblot; vag8 knock-out strains as controls
T2 sequence: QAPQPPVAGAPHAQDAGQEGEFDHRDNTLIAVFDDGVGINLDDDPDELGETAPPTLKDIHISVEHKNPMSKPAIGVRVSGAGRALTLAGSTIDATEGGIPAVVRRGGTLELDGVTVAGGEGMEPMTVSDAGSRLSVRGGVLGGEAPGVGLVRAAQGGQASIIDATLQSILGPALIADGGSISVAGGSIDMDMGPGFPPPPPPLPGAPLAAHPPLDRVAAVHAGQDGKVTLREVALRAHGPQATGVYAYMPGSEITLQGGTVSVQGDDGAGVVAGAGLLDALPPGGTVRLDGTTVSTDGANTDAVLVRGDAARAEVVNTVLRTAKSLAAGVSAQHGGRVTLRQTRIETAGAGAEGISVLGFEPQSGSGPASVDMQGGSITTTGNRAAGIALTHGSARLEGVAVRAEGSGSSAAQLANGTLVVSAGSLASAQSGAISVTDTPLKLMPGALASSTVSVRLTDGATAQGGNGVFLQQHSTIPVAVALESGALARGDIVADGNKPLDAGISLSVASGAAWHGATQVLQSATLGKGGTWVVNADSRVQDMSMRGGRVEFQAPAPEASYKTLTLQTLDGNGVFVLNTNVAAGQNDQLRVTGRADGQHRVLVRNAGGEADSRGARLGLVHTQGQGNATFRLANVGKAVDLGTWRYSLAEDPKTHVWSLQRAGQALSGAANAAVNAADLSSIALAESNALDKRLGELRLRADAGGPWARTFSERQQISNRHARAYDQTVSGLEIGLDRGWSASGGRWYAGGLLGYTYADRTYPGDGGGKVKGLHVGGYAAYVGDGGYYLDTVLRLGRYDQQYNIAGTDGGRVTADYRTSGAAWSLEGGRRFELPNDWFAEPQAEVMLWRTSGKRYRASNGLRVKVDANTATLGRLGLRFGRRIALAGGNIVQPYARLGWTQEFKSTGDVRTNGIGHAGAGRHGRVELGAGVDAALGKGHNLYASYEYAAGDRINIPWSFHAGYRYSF

B1: purified human C1 esterase inhibitor (natural protein)
chain: NPNATSSSSQDPESLQDRGEGKVATTVISKMLFVEPILEVSSLPTTNSTTNSATKITANTTDEPTTQPTTEPTTQPTIQPTQPTTQLPTDSPTQPTTGSFCPGPVTLCSDLESHSTEAVLGDALVDFSLKLYHAFSAMKKVETNMAFSPFSIASLLTQVLLGAGENTKTNLESILSYPKDFTCVHQALKGFTTKGVTSVSQIFHSPDLAIRDTFVNASRTLYSSSPRVLSNNSDANLELINTWVAKNTNNKISRLLDSLPSDTRLVLLNAIYLSAKWKTTFDPKKTRMEPFHFKNSVIKVPMMNSKKYPVAHFIDQTLKAKVGQLQLSHNLSLVILVPQNLKHRLEDMEQALSPSVFKAIMEKLEMSKFQPTLLTLPRIKVTTSQDMLSIMEKLEFFDFSYDLNLCGLTEDPDLQVSAMQHQTVLELTETGVEAAAASAISVARTLLVFEVQQPFLFVLWDQQHKFPVFMGRVYDPRA
notes: also called C1inh; purified C1inh; source: bought: Advanced Research Technologies (purified human C1inh)
[1]
  binding: binds
[2]
  binding: binds
[3]
  binding: no binding
